Laboratory results published in article PMC12222016.
These are yes or no findings as the source states them, for the method shown. Binding seen in cells or lysates may run through a third protein. These calls come from enrichment with a bait or labelling near it, and not all partners need be listed. For part of these data: No binding means not detected with the bait.

Chains of the proteins cited; added tags and fusions are not shown. Lines headed by an entry give the natural chain unless they say otherwise; changes in a name come on top.
UniProt A0A509AIH3: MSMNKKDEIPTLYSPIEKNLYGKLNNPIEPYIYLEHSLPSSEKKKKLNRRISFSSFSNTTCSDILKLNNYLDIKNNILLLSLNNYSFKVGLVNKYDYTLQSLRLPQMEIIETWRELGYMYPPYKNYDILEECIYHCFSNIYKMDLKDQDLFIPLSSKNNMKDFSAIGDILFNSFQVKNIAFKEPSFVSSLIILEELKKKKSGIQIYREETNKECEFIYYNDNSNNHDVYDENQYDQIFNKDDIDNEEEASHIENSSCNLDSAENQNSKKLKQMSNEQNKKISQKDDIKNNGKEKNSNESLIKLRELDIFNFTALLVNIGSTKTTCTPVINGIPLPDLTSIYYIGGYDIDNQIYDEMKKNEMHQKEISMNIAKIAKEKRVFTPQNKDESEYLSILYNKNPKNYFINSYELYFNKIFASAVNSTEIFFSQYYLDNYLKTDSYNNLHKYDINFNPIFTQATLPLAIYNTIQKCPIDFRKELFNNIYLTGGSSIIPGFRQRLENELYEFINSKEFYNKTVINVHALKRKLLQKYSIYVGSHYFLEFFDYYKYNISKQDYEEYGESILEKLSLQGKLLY
UniProt A0A509AML7: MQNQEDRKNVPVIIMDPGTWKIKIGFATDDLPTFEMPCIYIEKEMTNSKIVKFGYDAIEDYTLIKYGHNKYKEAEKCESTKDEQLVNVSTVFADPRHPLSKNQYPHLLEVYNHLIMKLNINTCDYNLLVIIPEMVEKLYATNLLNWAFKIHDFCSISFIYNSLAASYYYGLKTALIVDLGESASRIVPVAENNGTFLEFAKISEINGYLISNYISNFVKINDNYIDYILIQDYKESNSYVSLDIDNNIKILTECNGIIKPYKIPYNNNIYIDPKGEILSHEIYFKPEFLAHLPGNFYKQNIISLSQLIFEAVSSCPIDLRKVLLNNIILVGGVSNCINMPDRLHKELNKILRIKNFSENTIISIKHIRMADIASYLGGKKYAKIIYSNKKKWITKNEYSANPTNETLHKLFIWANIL
UniProt A0A509AF39: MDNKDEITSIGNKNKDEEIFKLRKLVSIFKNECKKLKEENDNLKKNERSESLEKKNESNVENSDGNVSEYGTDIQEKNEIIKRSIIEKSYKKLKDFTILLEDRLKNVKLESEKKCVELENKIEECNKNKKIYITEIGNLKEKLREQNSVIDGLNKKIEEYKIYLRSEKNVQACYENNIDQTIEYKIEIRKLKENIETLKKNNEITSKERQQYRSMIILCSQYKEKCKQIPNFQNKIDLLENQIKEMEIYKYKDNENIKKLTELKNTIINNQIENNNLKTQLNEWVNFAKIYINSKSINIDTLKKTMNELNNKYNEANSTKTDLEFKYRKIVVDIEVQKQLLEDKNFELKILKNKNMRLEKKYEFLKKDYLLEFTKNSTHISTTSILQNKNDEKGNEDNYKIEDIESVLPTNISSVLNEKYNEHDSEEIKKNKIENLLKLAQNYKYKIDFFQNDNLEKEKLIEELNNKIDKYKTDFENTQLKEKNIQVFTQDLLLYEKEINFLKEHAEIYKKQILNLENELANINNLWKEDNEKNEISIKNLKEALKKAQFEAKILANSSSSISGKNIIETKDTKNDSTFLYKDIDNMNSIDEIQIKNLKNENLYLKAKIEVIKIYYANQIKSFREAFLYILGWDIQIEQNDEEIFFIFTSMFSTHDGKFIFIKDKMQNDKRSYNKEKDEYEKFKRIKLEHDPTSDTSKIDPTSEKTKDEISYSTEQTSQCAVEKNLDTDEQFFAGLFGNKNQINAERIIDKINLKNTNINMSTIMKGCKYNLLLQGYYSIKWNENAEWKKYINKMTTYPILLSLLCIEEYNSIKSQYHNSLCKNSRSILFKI

What was measured:
ARPC1–GFP (P. berghei) [1] = assay: affinity purification with mass spectrometry; GFP-Trap agarose on lysates of purified P. berghei gametocytes activated 4 min at 19 °C in ookinete medium, fixed in 1% formaldehyde and quenched with glycine; enrichment against PbGFPcon gametocytes; four replicates
[2] = molecular target: ARPC2–YFPint (P. berghei); assay: as above
ARPC1–GFP (P. berghei) [3] = assay: affinity purification with mass spectrometry; GFP-Trap agarose on lysates of purified non-activated P. berghei gametocytes, fixed immediately in 1% formaldehyde and quenched with glycine; enrichment against PbGFPcon gametocytes; four replicates

Substance | binding (ARPC1–GFP (P. berghei) [1]) | binding [2] | binding (ARPC1–GFP (P. berghei) [3])
Alp5a (from UniProt A0A509AIH3) | binds | binds | no binding (only non-activated gametocytes)
Alp5b (from UniProt A0A509AML7) | binds | binds | no binding (only non-activated gametocytes)
apicomplexan-specific kinetochore protein 7 (from UniProt A0A509AF39) | binds | binds | no binding (only non-activated gametocytes)
